From the supplement of paper PMC11732987, “Enantioselective OTUD7B fragment discovery through chemoproteomics screening and high-throughput optimisation” (Communications Chemistry, 2025)
The list shows a part of the results. The data scatter; read single values as rough.

Sequences of proteins named here, by UniProt entry; tags and fusion partners are left off. A change or cut given only in a name is not applied to a line headed by its entry. Residues count along the entry.
UniProt Q07864, 580-604: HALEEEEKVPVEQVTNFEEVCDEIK
UniProt Q07864, whole entry, looked up: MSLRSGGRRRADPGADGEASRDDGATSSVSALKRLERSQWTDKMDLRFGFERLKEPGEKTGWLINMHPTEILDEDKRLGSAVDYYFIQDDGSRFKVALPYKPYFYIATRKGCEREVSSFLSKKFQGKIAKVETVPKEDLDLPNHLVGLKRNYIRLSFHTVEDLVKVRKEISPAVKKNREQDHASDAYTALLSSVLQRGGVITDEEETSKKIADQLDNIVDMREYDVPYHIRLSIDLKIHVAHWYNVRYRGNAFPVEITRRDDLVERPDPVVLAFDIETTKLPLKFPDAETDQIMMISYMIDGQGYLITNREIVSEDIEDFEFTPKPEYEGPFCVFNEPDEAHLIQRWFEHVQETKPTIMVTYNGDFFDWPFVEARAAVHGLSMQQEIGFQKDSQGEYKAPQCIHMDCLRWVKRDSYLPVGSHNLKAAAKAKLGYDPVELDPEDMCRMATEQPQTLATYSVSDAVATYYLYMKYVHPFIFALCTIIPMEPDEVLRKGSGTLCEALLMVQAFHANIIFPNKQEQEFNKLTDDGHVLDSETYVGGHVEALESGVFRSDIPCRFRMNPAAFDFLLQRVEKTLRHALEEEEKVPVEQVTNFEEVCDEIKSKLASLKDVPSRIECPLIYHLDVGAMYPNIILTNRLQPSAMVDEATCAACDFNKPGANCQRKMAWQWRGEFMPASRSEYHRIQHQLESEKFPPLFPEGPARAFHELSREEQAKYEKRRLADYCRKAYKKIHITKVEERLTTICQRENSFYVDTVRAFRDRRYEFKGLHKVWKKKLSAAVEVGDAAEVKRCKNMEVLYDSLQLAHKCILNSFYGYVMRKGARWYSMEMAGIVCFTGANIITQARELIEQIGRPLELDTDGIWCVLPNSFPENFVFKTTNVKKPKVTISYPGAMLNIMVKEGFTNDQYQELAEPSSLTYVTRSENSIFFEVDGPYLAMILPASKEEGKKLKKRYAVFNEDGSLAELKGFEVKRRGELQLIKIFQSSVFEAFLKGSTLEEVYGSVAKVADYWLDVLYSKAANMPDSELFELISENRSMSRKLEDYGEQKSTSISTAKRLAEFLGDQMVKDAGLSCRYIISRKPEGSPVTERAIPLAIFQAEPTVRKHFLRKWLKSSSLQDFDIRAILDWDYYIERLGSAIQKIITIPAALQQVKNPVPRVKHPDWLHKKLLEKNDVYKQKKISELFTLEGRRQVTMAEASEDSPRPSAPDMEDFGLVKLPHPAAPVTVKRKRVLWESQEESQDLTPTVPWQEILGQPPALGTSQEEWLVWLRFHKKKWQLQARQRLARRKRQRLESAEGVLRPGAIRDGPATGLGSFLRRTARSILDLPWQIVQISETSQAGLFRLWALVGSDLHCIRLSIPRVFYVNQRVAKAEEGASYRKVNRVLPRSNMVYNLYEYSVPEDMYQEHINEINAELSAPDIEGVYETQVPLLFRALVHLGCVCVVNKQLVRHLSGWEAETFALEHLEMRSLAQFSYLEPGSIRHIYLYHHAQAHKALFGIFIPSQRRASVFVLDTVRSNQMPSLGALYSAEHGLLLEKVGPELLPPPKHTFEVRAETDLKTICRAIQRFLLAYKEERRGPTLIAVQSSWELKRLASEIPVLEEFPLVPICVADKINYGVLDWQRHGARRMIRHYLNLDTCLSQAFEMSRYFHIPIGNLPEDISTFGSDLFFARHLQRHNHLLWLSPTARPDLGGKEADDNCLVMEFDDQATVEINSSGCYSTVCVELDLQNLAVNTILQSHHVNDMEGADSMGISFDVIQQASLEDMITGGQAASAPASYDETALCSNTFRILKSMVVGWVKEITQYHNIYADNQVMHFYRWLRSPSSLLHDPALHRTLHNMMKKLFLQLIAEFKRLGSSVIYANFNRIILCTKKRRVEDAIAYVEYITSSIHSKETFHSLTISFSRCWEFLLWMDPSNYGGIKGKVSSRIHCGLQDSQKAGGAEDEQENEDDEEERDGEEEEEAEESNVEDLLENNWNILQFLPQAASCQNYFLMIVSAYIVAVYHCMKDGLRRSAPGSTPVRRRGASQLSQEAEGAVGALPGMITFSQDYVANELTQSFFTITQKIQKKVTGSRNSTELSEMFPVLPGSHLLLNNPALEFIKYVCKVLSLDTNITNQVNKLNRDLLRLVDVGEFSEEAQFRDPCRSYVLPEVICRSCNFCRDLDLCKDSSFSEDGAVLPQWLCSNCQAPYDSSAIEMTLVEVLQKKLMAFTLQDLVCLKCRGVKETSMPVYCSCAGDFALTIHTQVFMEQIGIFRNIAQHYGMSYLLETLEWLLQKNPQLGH
UniProt Q8IYS1: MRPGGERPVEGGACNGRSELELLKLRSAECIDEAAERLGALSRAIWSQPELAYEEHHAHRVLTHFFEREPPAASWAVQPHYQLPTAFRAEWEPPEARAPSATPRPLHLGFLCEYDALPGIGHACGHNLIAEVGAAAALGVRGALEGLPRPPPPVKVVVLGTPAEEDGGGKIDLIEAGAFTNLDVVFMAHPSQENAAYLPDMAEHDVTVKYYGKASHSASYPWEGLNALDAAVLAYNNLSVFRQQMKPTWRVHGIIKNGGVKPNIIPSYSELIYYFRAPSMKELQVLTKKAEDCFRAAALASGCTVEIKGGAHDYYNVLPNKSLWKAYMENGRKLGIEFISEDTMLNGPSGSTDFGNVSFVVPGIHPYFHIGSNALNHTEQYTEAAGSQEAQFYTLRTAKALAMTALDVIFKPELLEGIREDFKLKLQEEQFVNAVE
UniProt P19174, 1106-1125: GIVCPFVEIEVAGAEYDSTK
UniProt Q9HAU0: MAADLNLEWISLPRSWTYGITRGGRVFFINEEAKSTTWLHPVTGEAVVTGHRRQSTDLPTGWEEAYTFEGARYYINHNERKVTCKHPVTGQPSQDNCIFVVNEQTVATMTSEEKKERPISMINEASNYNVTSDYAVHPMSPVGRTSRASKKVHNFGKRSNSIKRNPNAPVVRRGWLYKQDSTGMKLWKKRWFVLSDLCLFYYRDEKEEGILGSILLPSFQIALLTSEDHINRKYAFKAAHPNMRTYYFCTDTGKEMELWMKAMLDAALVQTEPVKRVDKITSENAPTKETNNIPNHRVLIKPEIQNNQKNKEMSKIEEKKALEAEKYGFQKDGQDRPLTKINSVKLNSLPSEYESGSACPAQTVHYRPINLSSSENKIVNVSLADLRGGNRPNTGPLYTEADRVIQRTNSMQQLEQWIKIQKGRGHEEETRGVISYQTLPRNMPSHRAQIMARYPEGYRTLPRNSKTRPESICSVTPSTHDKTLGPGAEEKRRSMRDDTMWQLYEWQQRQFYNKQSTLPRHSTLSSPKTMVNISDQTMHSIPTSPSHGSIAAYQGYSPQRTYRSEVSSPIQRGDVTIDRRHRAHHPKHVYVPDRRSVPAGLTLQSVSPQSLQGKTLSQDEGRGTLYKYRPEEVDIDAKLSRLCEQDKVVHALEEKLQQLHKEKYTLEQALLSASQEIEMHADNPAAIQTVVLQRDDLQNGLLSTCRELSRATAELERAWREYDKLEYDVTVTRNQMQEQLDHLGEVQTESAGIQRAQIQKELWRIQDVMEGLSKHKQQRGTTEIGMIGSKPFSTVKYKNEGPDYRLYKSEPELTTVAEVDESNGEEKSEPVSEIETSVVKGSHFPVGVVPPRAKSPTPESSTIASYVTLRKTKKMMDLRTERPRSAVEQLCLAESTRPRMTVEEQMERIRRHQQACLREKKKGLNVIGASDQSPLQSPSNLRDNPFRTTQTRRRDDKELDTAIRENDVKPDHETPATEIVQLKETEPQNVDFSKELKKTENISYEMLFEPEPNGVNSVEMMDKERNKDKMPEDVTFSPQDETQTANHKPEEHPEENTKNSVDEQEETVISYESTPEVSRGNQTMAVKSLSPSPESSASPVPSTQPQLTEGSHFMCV
UniProt O95602, whole entry, looked up: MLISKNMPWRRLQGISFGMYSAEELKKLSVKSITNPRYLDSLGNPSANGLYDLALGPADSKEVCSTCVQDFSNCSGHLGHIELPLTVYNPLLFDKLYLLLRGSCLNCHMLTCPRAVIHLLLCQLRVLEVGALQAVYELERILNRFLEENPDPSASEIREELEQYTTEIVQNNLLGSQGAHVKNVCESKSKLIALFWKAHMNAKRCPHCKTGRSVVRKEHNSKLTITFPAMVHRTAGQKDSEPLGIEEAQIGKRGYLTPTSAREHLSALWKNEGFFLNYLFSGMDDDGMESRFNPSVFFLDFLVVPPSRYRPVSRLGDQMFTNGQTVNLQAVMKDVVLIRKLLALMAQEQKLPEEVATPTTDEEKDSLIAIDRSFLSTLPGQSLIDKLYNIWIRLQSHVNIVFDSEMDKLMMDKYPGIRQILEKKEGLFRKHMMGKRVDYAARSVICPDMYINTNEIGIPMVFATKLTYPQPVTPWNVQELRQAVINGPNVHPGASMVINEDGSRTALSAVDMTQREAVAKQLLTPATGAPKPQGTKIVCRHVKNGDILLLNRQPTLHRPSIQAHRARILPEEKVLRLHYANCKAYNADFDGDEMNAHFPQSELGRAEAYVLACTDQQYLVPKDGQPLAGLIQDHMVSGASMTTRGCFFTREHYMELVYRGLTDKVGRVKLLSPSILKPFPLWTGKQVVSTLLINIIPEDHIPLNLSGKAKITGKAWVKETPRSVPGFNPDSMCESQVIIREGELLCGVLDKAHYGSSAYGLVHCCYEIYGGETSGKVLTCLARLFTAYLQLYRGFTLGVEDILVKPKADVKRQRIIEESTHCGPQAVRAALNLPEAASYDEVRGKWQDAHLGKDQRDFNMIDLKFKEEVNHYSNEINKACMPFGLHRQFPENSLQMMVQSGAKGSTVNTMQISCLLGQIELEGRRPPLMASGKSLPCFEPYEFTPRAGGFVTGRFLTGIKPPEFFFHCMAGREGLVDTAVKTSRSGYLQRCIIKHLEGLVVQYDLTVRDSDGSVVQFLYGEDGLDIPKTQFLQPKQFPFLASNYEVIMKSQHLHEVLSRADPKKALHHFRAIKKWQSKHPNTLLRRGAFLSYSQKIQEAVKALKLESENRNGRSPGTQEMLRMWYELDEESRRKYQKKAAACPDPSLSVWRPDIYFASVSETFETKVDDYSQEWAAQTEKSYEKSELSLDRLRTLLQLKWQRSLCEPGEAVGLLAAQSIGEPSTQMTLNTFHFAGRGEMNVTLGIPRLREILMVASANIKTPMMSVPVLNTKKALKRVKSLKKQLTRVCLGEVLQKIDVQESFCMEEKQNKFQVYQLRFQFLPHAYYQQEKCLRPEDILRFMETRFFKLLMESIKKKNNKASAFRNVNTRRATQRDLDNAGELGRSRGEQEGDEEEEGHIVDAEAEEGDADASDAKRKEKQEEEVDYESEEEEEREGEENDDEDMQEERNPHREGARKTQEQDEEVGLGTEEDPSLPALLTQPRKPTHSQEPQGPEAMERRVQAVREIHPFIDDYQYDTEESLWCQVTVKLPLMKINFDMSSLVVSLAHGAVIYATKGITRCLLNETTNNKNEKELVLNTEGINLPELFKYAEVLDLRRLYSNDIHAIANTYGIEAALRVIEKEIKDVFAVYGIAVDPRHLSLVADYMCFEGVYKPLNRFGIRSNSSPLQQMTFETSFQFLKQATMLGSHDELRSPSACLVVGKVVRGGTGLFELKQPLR
UniProt Q15126: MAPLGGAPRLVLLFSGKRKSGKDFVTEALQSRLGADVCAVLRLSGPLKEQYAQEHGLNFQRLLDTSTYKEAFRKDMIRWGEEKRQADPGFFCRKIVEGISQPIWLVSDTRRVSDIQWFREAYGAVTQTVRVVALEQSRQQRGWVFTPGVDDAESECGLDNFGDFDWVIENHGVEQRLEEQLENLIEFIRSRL
UniProt Q99570, 892-917: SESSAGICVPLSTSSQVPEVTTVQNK
UniProt Q9H307: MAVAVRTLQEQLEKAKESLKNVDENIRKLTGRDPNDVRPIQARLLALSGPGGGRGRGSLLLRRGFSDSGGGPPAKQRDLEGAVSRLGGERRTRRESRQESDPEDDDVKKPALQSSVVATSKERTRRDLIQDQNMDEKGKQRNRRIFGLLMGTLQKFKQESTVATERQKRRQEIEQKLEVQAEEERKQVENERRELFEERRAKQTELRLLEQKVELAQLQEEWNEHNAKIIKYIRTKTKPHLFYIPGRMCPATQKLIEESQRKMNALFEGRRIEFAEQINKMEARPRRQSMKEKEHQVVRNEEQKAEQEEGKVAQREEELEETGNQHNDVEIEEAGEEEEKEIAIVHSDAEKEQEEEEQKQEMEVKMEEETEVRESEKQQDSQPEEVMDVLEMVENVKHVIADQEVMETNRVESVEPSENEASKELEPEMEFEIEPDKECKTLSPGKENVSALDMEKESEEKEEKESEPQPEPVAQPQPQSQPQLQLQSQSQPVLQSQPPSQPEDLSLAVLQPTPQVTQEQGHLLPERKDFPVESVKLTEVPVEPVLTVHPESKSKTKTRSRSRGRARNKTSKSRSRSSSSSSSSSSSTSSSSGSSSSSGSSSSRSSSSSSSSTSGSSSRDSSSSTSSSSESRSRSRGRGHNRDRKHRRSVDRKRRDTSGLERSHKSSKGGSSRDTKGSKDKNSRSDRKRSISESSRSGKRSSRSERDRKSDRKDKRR
UniProt Q9BSJ6, 28-48: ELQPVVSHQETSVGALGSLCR

What was measured:
[1] = compound: ClCC(=O)N[C@@H]1CCCc2ccccc12; assay: log2 mean competition ratio of IA-DTB cysteine labelling (DMSO/compound) (log2 ratio); higher = stronger cysteine engagement by compound; conditions: treatment time: 4 h, cell line lysate: HEK293T
Experimental: (§1)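 IA-DTB competitive cysteine chemoproteomics in HEK293T RIPA lysate. Lysates were treated with compound 29 or 30 at 50 or 200 µM for 4 h, then IA-DTB (500 µM, 1 h), trypsin-digested, NeutrAvidin-enriched and analysed by diaPASEF. Competition ratio = intensity DMSO / intensity compound (n=4 treated, n=64 DMSO); binding: mean log2 CR ≥ 1 and p ≤ 0.05 plus QC filters. Target is the cysteine site.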

[2] = compound: ClCC(=O)N[C@H]1CCCc2ccccc12; assay: as above; conditions: treatment time: 4 h, cell line lysate: HEK293T
Experimental: as §1

| Target | log2 mean competition ratio ([1]; 50 µM) | log2 mean competition ratio ([1]; 200 µM) | log2 mean competition ratio ([2]; 50 µM) | log2 mean competition ratio ([2]; 200 µM) |
| --- | --- | --- | --- | --- |
| POLA1 C592 (UniProt P09884) | 0.326 | 0.351 | 0.224 | 0.56 |
| PKN2 C704 (UniProt Q16513) | -0.42 | -0.141 | -0.0375 | 0.126 |
| PKN2 C338 (UniProt Q16513) | 0.229 | 0.0559 | -0.0174 | 0.0376 |
| PMS2 C202 (UniProt P54278) | 0.136 | -0.192 | -0.14 | -0.0326 |
| POLE C600 (UniProt Q07864) | -0.4 | -0.0962 | -0.299 | -0.2 |
| PM20D2 C293 (UniProt Q8IYS1) | -0.00783 | 0.0144 | -0.107 | 0.0159 |
| PHKG2 C201 (UniProt P15735) | -0.134 | 0.0719 | -0.351 | -0.131 |
| PLCG1 C1109 (UniProt P19174) | -0.572 | -0.137 | -0.0247 | -0.205 |
| PLEKHA5 C473 (UniProt Q9HAU0) | 0.232 | -0.0604 | 0.191 | -0.092 |
| POLR1A C1699 (UniProt O95602) | 0.0877 | -0.147 | 0.139 | -0.00748 |
| PINX1 C145 (UniProt Q96BK5) | -0.0532 | 0.488 | 0.184 | 0.499 |
| POLE C2158 (UniProt Q07864) | 0.0312 | 0.00551 | 0.139 | 0.184 |
| PNPLA6 C665 (UniProt Q8IY17) | -0.158 | -0.372 | -0.172 | -0.286 |
| PMVK C38 (UniProt Q15126) | 0.0558 | 0.0327 | -0.207 | -0.00907 |
| PIK3R4 C899 (UniProt Q99570) | -0.303 | -0.171 | 0.38 | -0.147 |
| PLAT C419 | -0.127 | 0.314 | -0.0271 | 0.225 |
| PNN C439 (UniProt Q9H307) | -0.281 | 0.392 | -0.299 | 0.301 |
| PM20D2 C303 (UniProt Q8IYS1) | -0.0479 | 0.0997 | -0.221 | 0.0552 |
| PITX2 C152 | -0.0421 | 0.282 | 0.0931 | 0.338 |
| PLEKHA5 C891 (UniProt Q9HAU0) | 0.0574 | 0.109 | -0.369 | 0.0115 |
| PIGT C195 | 0.25 | -0.109 | -0.0323 | -0.149 |
| PIMREG C47 (UniProt Q9BSJ6) | -0.165 | -0.362 | -0.36 | -0.292 |
| PHF6 C305 (UniProt Q8IWS0) | 0.301 | 0.0974 | 0.395 | -0.0458 |

Record cards, as listed above. Order of values: log2 mean competition ratio ([1]; 50 µM)	log2 mean competition ratio ([1]; 200 µM)	log2 mean competition ratio ([2]; 50 µM)	log2 mean competition ratio ([2]; 200 µM)
PM20D2 C293 (UniProt Q8IYS1) is entered as -0.00783	0.0144	-0.107	0.0159
PM20D2 C303 (UniProt Q8IYS1) is entered as -0.0479	0.0997	-0.221	0.0552
